Assay results reported in patent US20230340027A1 (TECHNION RESEARCH & DEVELOPMENT FOUNDATION LIMITED, priority 2020, published 2023).

Experiment: general procedure: Fmoc solid-phase peptide synthesis; Rink amide resin (0.26 mmol/g); HCTU/DIEA
Conditions: for conjugation yield: conjugation step

| Substance | conjugation yield | step yield (late stage modification step) |
| --- | --- | --- |
| (Ub4_ix_S7C)2 (WLYLDDCGDWWICG; cyclised or stapled) | 23% |  |
| (Ub4_ix_S7C)2CH2 (WLYLDDCGDWWICG; cyclised or stapled) | 18% |  |
| Ub4_ix_S7C (WLYLDDCGDWWICG; cyclic) |  | 42% |
